From the supplement of paper PMC8256030
Values joined by “and” are separate entries in the source; they are usually repeats but may differ in a detail not shown here. Equal entries are not always repeated. Structures can show the parent of a compound that is named as a salt. This is one part of the list. This data set is noisy: repeats of one test often differ as much as different tests do.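 HEK293T cells were given each compound shortly before transfection with a reporter in which red mCherry is followed by the SARS-CoV-2 frameshift element and then GFP in the −1 frame, so GFP appears only after frameshifting.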

Test system: HEK293T
Assay: percent viability (nuclei count) relative to control; higher = more viable cells
Conditions: 10 µM; 24 h

Question: With `CC(C)[C@H](N)C(=O)OCCOCn1cnc2c(=O)nc(N)[nH]c21` as the compound, how does the percent viability read?
Answer: 130%

Question: `C[S+](CC[C@H](N)C(=O)[O-])C[C@H]1O[C@@H](n2cnc3c(N)ncnc32)[C@H](O)[C@@H]1O` (some centres not stated) [S-Adenosylmethionine] was tested. Which percent viability did it give?
Answer: 189%

Question: `CC[C@H]1OC(=O)[C@H](C)[C@@H](O[C@H]2C[C@@](C)(OC)[C@@H](O)[C@H](C)O2)[C@H](C)[C@@H](O[C@@H]2O[C@H](C)C[C@H](N(C)C)[C@H]2O)[C@](C)(O)C[C@@H](C)CN(C)[C@H](C)[C@@H](O)[C@]1(C)O` was tested. Which percent viability did it give?
Answer: 338%

Question: Which percent viability does the source give for `Cc1c(O)cccc1C(=O)N[C@@H](CSc1ccccc1)[C@H](O)CN1C[C@H]2CCCC[C@H]2C[C@H]1C(=O)NC(C)(C)C` [Nelfinavir mesylate] here?
Answer: 224%

Question: For `O=C(NCC1CCCCN1)c1cc(OCC(F)(F)F)ccc1OCC(F)(F)F` (configuration not stated) [Flecainide acetate], which percent viability is on record?
Answer: 346%

Question: With `CCCN(CCC)S(=O)(=O)c1ccc(C)cc1` [ditolamide] as the compound, how does the percent viability read?
Answer: 159%

Question: `CCN(CC)CCCC(C)Nc1ccnc2cc(Cl)ccc12` (configuration not stated) [chloroquine] was tested. Which percent viability did it give?
Answer: 113%

Question: With `CCN(CC)CC(=O)Nc1c(C)cccc1C` [lidocaine] as the compound, how does the percent viability read?
Answer: 174%

Question: `CCC[C@@H]1C[C@@H](C(=O)N[C@@H]([C@H]2O[C@H](SC)[C@H](O)[C@@H](O)[C@H]2O)[C@H](C)Cl)N(C)C1` [Clindamycin·HCl] was tested. Which percent viability did it give?
Answer: 98.7%

Question: With `C#CCOC[C@H]1CO[C@](Cn2ccnc2)(c2ccc(Cl)cc2Cl)O1` [parconazole] as the compound, how does the percent viability read?
Answer: 81.3%

Question: How did the percent viability turn out when `O=C(Nc1cccc(C(F)(F)F)c1)c1cc(Br)cc(Br)c1O` [flusalan] was run?
Answer: 128%

Question: Which percent viability does the source give for `CN1CCC(=C2c3ccccc3CCc3sccc32)CC1` here?
Answer: 334%

Question: For `CCCCCCOC(=O)NC(=N)c1ccc(NCc2nc3cc(C(=O)N(CCC(=O)OCC)c4ccccn4)ccc3n2C)cc1` [Dabigatran etexilate], which percent viability is on record?
Answer: 111%

Question: How did the percent viability turn out when `Cn1c(=O)c2[nH]cnc2n(C)c1=O` [aminophylline] was run?
Answer: 108%

Question: `COc1ccc2c(c1)C(=O)N(CCc1ccc(S(=O)(=O)NC(=O)NC3CCCCC3)cc1)C(=O)C2(C)C` [gliquidone] was tested. Which percent viability did it give?
Answer: 131%

Question: For `CS(=O)(=O)Nc1cc2occ(NC=O)c(=O)c2cc1Oc1ccccc1` [iguratimod], which percent viability is on record?
Answer: 196%

Question: How did the percent viability turn out when `CNNCc1ccc(C(=O)NC(C)C)cc1` [procarbazine] was run?
Answer: 170% and 266%

Question: With `CO[C@H]1C[C@@H]2CC[C@@H](C)[C@@](O)(O2)C(=O)C(=O)N2CCCC[C@H]2C(=O)O[C@H]([C@H](C)C[C@@H]2CC[C@@H](O)[C@H](OC)C2)CC(=O)[C@H](C)/C=C(\C)[C@@H](O)[C@@H](OC)C(=O)[C@H](C)C[C@H](C)/C=C/C=C/C=C/1C` as the compound, how does the percent viability read?
Answer: 122%

Question: For `CCCOc1ccccc1-c1nc2[nH]nnc2c(=O)[nH]1` [Zaprinast], which percent viability is on record?
Answer: 244%

Question: `COc1cccc(CCc2ccccc2OCC(CN(C)C)OC(=O)CCC(=O)O)c1` (configuration not stated) [sarpogrelate] was tested. Which percent viability did it give?
Answer: 308%

Question: `COc1ccc2c(O[C@@H]3C[C@H]4C(=O)N[C@]5(C(=O)O)C[C@@H]5/C=C\CCCCC[C@H](NC(=O)OC5CCCC5)C(=O)N4C3)cc(-c3csc(NC(=O)C(C)C)n3)nc2c1C` was tested. Which percent viability did it give?
Answer: 99.4%

Question: For `CO/N=C(\C(=O)N[C@@H]1C(=O)N2C(C(=O)[O-])=C(C[n+]3ccn4ncccc43)CS[C@H]12)c1nsc(N)n1` [cefozopran], which percent viability is on record?
Answer: 220%

Question: How did the percent viability turn out when `CC(C(=O)O)c1ccc2c(c1)Cc1cccnc1O2` (configuration not stated) [pranoprofen] was run?
Answer: 222% and 133%

Question: With `N=C(N)NCc1cccc(I)c1` [Iobenguane] as the compound, how does the percent viability read?
Answer: 274%

Question: How did the percent viability turn out when `Cc1ccc(C2(O)CCN(CCCC(=O)c3ccc(F)cc3)CC2)cc1` [moperone] was run?
Answer: 109%

Question: Which percent viability does the source give for `CC(C)CCC(=O)CC1c2ccccc2C(=O)N1c1ccc2ccc(Cl)nc2n1` (configuration not stated) [pagoclone] here?
Answer: 144%

Question: Which percent viability does the source give for `COC(=O)C[C@](O)(CCCC(C)(C)O)C(=O)O[C@@H]1C(OC)=C[C@]23CCCN2CCc2cc4c(cc2[C@H]13)OCO4` [omacetaxine mepesuccinate] here?
Answer: 6.92%

Question: `CNCCCC12CCC(c3ccccc31)c1ccccc12` [maprotiline] was tested. Which percent viability did it give?
Answer: 374% and 209%

Question: With `S=C(NCCc1ccccn1)Nc1ccc(Br)cn1` [trovirdine] as the compound, how does the percent viability read?
Answer: 183%

Question: With `C[N+](C)(C)CC(O)CC(=O)[O-]` (configuration not stated) as the compound, how does the percent viability read?
Answer: 67.7%

Question: For `COc1ccc2c(c1)N(CCCN(C)C)c1ccccc1S2` [methopromazine], which percent viability is on record?
Answer: 277%

Question: With `C[C@@H]1O[C@@H](OC[C@H]2O[C@@H](Oc3c(-c4ccc(O)c(O)c4)oc4cc(O)cc(O)c4c3=O)[C@H](O)[C@@H](O)[C@@H]2O)[C@H](O)[C@H](O)[C@H]1O` [rutoside] as the compound, how does the percent viability read?
Answer: 125%
